# According to US11980667B2, “Short TAT oligomers for drug delivery” (The Trustees of Columbia University in the City of New York, priority 2017, dated 2024):
# Part of at least one peptide drawing is inferred or uncertain, most often the ends. Where a SMILES comes first, the peptide text is derived from it. [ ]: non-standard residue; d: D form. Phe(4-N(CH2CH2Cl)2) = N[C@@H](Cc1ccc(N(CCCl)CCCl)cc1)C(=O)O
# Assays:
# [1] = tested on: 9L glioma; experiment: Survival after IA-TCH delivery of melphalan or melphalan-conjugated TAT; type: in vivo, rat
# Experimental: Thirteen 9L glioma-implanted anesthetized rats were intubated and ventilated. The carotid artery of each rat was exposed and cannulated but the ICA was not isolated to minimize surgical trauma. The rats were subjected to delivery of melphalan with adenosine, esmolol and cold saline via IA-TCH. Six rats received 0.25 mg of melphalan, three rats received 0.5 mg melphalan and one rat received 1 mg of melphalan. Remaining rats were either treated with saline or left untreated. After the IA-TCH injection, rats were allowed to recover and sacrificed when pre-determined criteria were met.
# A similar procedure was performed on seven 9L glioma-implanted rats using melphalan-conjugated TAT monomer at a dose of 1 mg (0.16 mg melphalan content). However, the ICA was isolated with an aneurysm clip. Survival of the rats was monitored and images of the brains of the rats were obtained by MRI. The same procedure was performed using 5 rats with melphalan-conjugated TAT dimer at a dose of 1 mg (0.08 mg melphalan content).
# [2] = tested on: 9L glioma tumor; experiment: Serial MRI and survival of one treated tumor bearing rat; type: in vivo; conditions: 1 mg
SMILES,"Survival ([1]; 1 mg (0.08 mg melphalan content) IA-TCH, 5 rats, p<0.004 versus control) [days]",MRI findings ([1]; 1 mg IA-TCH),Day of death post-implantation [2] [days],"Survival ([1]; 1 mg (0.16 mg melphalan content) IA-TCH, seven rats, p=0.025 versus control) [days]","Survival of the longest surviving rat ([1]; 1 mg IA-TCH, FIG. 31) [days]"
N=C(N)NCCC[C@H](NC(=O)CNC(=O)[C@H](CCC(N)=O)NC(=O)[C@H](CCC(N)=O)NC(=O)[C@@H]1CCCN1C(=O)[C@@H]1CCCN1C(=O)[C@H](CCCNC(=N)N)NC(=O)[C@H](CCCNC(=N)N)NC(=O)[C@H](CCCNC(=N)N)NC(=O)[C@H](CCC(N)=O)NC(=O)[C@H](CCCNC(=N)N)NC(=O)[C@H](CCCNC(=N)N)NC(=O)[C@H](CCCCN)NC(=O)[C@H](CCCCN)NC(=O)[C@H](CCCNC(=N)N)NC(=O)CNC(=O)[C@@H](N)Cc1ccc(N(CCCl)CCCl)cc1)C(=O)N[C@@H](CCCCN)C(=O)N[C@@H](CCCCN)C(=O)N[C@@H](CCCNC(=N)N)C(=O)N[C@@H](CCCNC(=N)N)C(=O)N[C@@H](CCC(N)=O)C(=O)N[C@@H](CCCNC(=N)N)C(=O)N[C@@H](CCCNC(=N)N)C(=O)N[C@@H](CCCNC(=N)N)C(=O)N1CCC[C@H]1C(=O)N1CCC[C@H]1C(=O)N[C@@H](CCC(N)=O)C(=O)N[C@@H](CCC(N)=O)C(=O)O [melphalan-conjugated TAT dimer] (H-[Phe(4-N(CH2CH2Cl)2)]GRKKRRQRRRPPQQGRKKRRQRRRPPQQ-OH),37 ± 2,cystic areas of necrosis but no evidence of regression of the tumor,35,–,–
N=C(N)NCCC[C@H](NC(=O)CNC(=O)[C@@H](N)Cc1ccc(N(CCCl)CCCl)cc1)C(=O)N[C@@H](CCCCN)C(=O)N[C@@H](CCCCN)C(=O)N[C@@H](CCCNC(=N)N)C(=O)N[C@@H](CCCNC(=N)N)C(=O)N[C@@H](CCC(N)=O)C(=O)N[C@@H](CCCNC(=N)N)C(=O)N[C@@H](CCCNC(=N)N)C(=O)N[C@@H](CCCNC(=N)N)C(=O)N1CCC[C@H]1C(=O)N1CCC[C@H]1C(=O)N[C@@H](CCC(N)=O)C(=O)N[C@@H](CCC(N)=O)C(=O)O [melphalan-conjugated TAT monomer],–,–,–,31 ± 7,50
